Six molecules from paper PMC7260189 can be followed below.

Sequences of proteins named here, by UniProt entry; tags and fusion partners are left off. A change or cut given only in a name is not applied to a line headed by its entry. A line that says so, or that is headed by a name, gives the form on record, which may keep a tag or linker.
UniProt O95817: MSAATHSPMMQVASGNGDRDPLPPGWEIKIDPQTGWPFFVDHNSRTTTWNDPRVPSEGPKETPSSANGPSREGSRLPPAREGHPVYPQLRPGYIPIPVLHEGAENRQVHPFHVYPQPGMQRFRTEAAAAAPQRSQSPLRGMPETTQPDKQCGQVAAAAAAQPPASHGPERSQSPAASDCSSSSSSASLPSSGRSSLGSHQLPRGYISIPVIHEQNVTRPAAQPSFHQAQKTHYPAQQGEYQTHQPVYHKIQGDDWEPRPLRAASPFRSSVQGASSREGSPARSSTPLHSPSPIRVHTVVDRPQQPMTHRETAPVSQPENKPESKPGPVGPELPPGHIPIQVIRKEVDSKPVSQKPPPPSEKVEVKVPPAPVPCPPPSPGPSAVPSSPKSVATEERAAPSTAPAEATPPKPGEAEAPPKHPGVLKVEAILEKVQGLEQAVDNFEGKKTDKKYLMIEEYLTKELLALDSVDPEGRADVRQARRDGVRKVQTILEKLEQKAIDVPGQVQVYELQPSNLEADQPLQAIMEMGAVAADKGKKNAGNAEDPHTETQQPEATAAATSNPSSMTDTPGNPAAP
BAG3_Pro209Ser-GFP (O95817, form named): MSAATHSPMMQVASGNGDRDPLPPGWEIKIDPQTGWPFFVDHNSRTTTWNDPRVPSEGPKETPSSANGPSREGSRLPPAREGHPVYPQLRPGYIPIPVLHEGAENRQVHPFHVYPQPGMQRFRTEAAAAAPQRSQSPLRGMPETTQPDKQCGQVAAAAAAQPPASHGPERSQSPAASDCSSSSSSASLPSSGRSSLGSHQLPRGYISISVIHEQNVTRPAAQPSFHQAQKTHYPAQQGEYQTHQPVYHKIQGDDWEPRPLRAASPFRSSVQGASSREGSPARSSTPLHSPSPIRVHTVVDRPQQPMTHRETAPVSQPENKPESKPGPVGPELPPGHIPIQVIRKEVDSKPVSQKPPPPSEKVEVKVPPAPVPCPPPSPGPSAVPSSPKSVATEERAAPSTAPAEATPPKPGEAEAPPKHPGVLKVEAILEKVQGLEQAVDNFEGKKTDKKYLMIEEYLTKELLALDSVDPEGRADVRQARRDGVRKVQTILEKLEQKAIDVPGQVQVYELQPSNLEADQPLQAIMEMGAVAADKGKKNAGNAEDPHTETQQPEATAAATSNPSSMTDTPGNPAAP
BAG3_Pro209Leu-GFP (O95817, form named): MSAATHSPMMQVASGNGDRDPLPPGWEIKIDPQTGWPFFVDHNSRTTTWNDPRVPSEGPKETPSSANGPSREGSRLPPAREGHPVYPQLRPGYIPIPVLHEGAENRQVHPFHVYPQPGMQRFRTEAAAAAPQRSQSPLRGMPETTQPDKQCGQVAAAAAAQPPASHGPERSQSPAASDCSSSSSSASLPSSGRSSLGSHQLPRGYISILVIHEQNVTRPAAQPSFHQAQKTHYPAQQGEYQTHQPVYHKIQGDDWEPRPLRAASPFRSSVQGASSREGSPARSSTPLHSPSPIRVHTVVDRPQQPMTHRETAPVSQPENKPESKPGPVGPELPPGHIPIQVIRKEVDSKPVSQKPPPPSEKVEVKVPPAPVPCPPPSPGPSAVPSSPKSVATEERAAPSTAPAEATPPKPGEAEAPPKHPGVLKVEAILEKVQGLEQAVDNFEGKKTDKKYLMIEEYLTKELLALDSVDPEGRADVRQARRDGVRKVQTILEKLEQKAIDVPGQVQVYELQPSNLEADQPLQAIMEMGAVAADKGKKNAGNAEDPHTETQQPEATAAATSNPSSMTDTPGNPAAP
BAG3_Glu455Lys-GFP (O95817, form named): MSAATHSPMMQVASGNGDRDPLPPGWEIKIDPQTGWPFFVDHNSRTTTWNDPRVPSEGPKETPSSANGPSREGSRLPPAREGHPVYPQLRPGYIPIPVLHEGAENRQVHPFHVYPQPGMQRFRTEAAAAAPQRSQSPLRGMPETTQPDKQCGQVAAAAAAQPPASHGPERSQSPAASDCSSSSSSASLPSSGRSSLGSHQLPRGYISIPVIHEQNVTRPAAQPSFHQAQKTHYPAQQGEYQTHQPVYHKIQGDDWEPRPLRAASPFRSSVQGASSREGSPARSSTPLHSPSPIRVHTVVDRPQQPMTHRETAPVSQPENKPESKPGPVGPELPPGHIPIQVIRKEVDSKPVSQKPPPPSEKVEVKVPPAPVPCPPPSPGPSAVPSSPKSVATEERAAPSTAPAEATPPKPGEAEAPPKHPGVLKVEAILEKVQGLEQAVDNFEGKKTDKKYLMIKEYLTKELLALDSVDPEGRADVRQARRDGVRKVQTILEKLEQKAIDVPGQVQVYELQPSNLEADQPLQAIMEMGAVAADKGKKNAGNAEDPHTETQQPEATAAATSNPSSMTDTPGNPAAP
BAG3_Pro209Gln-GFP (O95817, form named): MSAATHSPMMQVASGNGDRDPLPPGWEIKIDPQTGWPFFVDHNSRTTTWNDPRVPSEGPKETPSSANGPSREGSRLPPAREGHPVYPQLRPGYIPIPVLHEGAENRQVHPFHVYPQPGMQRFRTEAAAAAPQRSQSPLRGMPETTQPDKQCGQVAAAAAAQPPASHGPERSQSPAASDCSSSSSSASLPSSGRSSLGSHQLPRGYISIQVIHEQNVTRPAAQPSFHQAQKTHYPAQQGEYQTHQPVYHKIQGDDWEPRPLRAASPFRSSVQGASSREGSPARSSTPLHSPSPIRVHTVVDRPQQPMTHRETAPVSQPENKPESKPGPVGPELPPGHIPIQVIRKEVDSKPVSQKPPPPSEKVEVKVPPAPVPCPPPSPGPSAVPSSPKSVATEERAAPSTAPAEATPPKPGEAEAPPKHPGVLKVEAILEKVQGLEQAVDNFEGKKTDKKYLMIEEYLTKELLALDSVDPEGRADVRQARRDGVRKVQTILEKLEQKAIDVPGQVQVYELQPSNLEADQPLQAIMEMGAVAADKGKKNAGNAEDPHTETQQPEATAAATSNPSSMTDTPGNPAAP

These are yes or no findings as the source states them, for the method shown. Binding seen in cells or lysates may run through a third protein. Some binding calls cover weakened binding; strength is not graded here. For some of these results: Tags and fused reporters may be left off the sequences shown.

Test [1] has as its target T1, HSPB8 (endogenous, HeLa) (human (endogenous in HeLa)) (UniProt Q9UJY1).
T1 sequence: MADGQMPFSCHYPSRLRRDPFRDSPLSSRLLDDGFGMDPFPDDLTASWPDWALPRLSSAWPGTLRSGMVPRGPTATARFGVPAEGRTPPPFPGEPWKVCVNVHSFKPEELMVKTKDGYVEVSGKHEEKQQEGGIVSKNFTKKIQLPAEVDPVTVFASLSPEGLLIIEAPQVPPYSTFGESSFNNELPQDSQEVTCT
As to the kind of experiment: co-IP; reverse experiment: HSPB8 precipitated with home-made rabbit HSPB8 antibody on Rabbit TrueBlot beads from lysates of HeLa cells transfected with BAG3-GFP constructs, 24 h after transfection; 1 h at 4 °C; 150 mM NaCl, 0.5% NP40, 1.5 mM MgCl2, 20 mM Tris-HCl pH 7.4, 3% glycerol, 1 mM DTT; rabbit serum as control.

Test [2] deals with BAG3_Glu455Lys-GFP (human) (UniProt O95817). Kind of test: co-IP; BAG3-GFP captured on GFP-Trap beads from the NP-40-soluble lysate of HEK293T cells stably expressing HSPB8-V5, 48 h after transfection; 1 h at 4 °C; 20 mM Tris-HCl pH 7.4, 2.5 mM MgCl2, 100 mM KCl, 0.5% Nonidet P-40; blots for GFP, V5, SQSTM1/p62 and Hsp70/Hsc70.
Test [3] deals with BAG3_Pro209Leu-GFP (human) (UniProt O95817). The test is described as above.
Test [4] deals with BAG3_Pro209Ser-GFP (human) (UniProt O95817). Described as above.
Test [5] addresses wild type BAG3-GFP (Bcl2-associated athanogene 3) (human) (UniProt O95817). The test is described as above.
Test [6] deals with BAG3_Pro209Gln-GFP (human) (UniProt O95817). Described as above.

On to “wild type BAG3-GFP (Bcl2-associated athanogene 3) (from UniProt O95817 1-575)”, for which the binding result in test [1] is given as “binds”.

Turning to “BAG3_Pro209Ser-GFP (from UniProt O95817 1-575)”, the binding entry in test [1] is reported as “binds”.

Regarding “BAG3_Pro209Leu-GFP (from UniProt O95817 1-575)”, the binding result in test [1] was “binds”.

Regarding “BAG3_Glu455Lys-GFP (from UniProt O95817 1-575)”, in test [1], the binding entry is “binds”.

“BAG3_Pro209Gln-GFP (from UniProt O95817 1-575)”: the binding result in test [1] is reported as “binds”.

B1: HSPB8-V5 (protein, UniProt Q9UJY1 1-196)
chain: T1 sequence
On to B1, for which the binding result in test [2], in test [3], in test [4], in test [5] and in test [6] was “binds” in each case.
